Assay results reported in the supplement of paper PMC10973195.
± gives the standard deviation of the averaged measurements. Some of the results follow. Values are raw readings; no control value is given beside them.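 The test system is a mixed culture of neurons, microglia and astrocytes in which bacterial LPS triggers microglia-driven neuron loss, modelling inflammatory neurodegeneration. Each compound was compared with vehicle (DMSO) wells on the same plates, and the SYK inhibitor BAY61-3606 served as the reference neuroprotective control.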

Each compound was assayed on rat primary cerebellar neuron-glia coculture (assay: live neuron count (NeuO+) per image field (cells per field); higher = more surviving neurons). Conditions: LPS 0 ng/mL; 1 µM; treatment time 3 days.
Experimental: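 Primary rat (P3-7) cerebellar neuron-glia cocultures in 384-well plates were treated at DIV7 with 1 uM compound, then with or without 100 ng/mL LPS 30 min later, for 3 days. At DIV10 live cells were stained with Hoechst 33342, NeuO (live neurons), IB4-AF594 (microglia) and DRAQ7 (necrotic cells) and imaged at 10x (4 fields per well, IN Cell Analyzer 6000). Cells were classified with Cellpose/CellProfiler plus a Random Trees classifier. Values are per-well mean counts per image field (raw, not min-max normalised) and the median microglial FormFactor per image. Three technical replicates per repeat across 4 biological repeats; DMSO and BAY61-3606 serve as controls.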

SMILES	live neuron count
O=C(O[C@H]1C[N+]2(CCCOc3ccccc3)CCC1CC2)C(O)(c1cccs1)c1cccs1	2600 ± 380
COc1ccc2c(c[n+](C)c3c4cc5c(cc4ccc23)OCO5)c1OC	2530 ± 760
NCCc1cc(I)c(Oc2ccc(O)c(I)c2)c(I)c1	2630 ± 500
Cc1cccc(NC(=O)N[C@@H]2N=C(c3ccccc3)c3ccccc3N(C)C2=O)c1	2570 ± 420
CCOc1ccccc1N1CCN(Cc2cccc3ccccc23)CC1	2630 ± 560
C[N+]1(C)[C@@H]2C[C@@H](OC(=O)[C@H](CO)c3ccccc3)C[C@H]1[C@@H]1O[C@@H]12	2690 ± 440

Same assay, conditions: LPS 100 ng/mL; 1 µM; treatment time 3 days

SMILES	live neuron count
O=C(O[C@H]1C[N+]2(CCCOc3ccccc3)CCC1CC2)C(O)(c1cccs1)c1cccs1	239 ± 200
COc1ccc2c(c[n+](C)c3c4cc5c(cc4ccc23)OCO5)c1OC	468 ± 600
NCCc1cc(I)c(Oc2ccc(O)c(I)c2)c(I)c1	330 ± 310
Cc1cccc(NC(=O)N[C@@H]2N=C(c3ccccc3)c3ccccc3N(C)C2=O)c1	198 ± 160
CCOc1ccccc1N1CCN(Cc2cccc3ccccc23)CC1	486 ± 900
C[N+]1(C)[C@@H]2C[C@@H](OC(=O)[C@H](CO)c3ccccc3)C[C@H]1[C@@H]1O[C@@H]12	254 ± 210
